Test results as given in paper PMC3789756.

Target: T1, murine Ifit1 (mouse (endogenous in MEFs)) (UniProt Q64282)
T1 sequence: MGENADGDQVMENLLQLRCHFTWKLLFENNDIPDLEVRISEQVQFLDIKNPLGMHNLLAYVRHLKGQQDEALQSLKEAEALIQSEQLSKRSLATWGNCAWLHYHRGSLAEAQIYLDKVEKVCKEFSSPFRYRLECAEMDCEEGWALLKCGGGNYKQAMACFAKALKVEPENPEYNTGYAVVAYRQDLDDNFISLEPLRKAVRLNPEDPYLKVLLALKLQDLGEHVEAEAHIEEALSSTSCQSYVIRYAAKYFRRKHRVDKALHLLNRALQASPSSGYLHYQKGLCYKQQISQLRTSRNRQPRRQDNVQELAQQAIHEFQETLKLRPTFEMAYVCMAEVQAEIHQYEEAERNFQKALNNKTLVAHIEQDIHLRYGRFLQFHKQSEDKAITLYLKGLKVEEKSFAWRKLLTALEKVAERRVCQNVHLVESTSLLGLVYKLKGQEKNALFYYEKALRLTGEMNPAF
Test: affinity purification with mass spectrometry; CAP-RNA against OH-RNA on beads, lysates of IFN-α-treated MEFs from wild-type (Ifit1+/+) and Ifit1-deficient (Ifit1-/-) mice; the bait is RNA

For “murine Ifit1c (also known as Gm14446) (mouse (endogenous in MEFs))”, the binding was “binds”.

These are yes or no findings as the source states them, for the method shown. In cells and extracts the contact can be indirect. These calls come from enrichment with a bait or labelling near it, and not all partners need be listed.
